# Laboratory results taken from patent publication US20020111289.
# Chains of the proteins cited; added tags and fusions are not shown. Residues count along the entry.
# UniProt P61244, 2-160: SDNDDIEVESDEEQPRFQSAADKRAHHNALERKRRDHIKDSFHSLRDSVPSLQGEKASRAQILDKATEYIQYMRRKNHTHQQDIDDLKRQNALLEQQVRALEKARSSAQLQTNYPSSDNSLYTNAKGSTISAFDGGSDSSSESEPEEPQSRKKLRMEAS
# The exact form of at least one protein or probe is not confirmed. For part of these data: A negative result means that nothing was seen under these conditions.
# Columns and labels:
# [1] = test system: c-MYC (ct-Myc, truncated)/MAX heterodimer; experiment: EMSA; details: protein translated in vitro, label: 32P end-label
# c-Myc wild type = experiment: activity in cells; details: protein in cells, protein details: MLV-LTR expression plasmid
# MAX = MAX (UniProt P61244); experiment: EMSA; details: putative MAX complex bound to DNA supershifted by anti-HA; protein translated in vitro; protein details: C-terminal HA, TNT T7 Quick (Promega); label: 32P end-label
# [2] = test system: c-Myc HLH deletion mutant deletion of amino acids 371-412; experiment: activity in cells; details: no transactivation in NIH3T3; protein in cells; protein details: MLV-LTR expression plasmid
Sequence,binding result ([1]; variant of CDK4 promoter fragment wt MBS1-4),"activity on this sequence (fold less active than wild-type promoter) (c-Myc wild type; luciferase in NIH3T3 with cotransfected c-Myc, mutMBS1-4, variant of CDK4 promoter fragment wt MBS1-4, counted as no effect)","binding result ([1]; 25 mM Tris pH 7.5, 80 mM NaCl, 35 mM KCl, 5 mM MgCl2, poly(dIdC), room temperature, competed by 40x unlabeled wt but not mutant, HA supershift)",binding result (MAX),activity on this sequence (c-Myc wild type; luciferase transactivation in NIH3T3),activity on this sequence [2]
CCGGTACCGGGTTGTGGCAGCCAGTCACCTGCCCGCCGCGTAGCCACACCTCTGCTCCTCAGAGCAATGTCAAGCGGTCACCTGTGATAGCAACAGATCACCTGGCTGCCATCGCCCCTC / ATGAATTCCGGACGTTCTGGGCAGGTGACCGCCACCCATGCGCTGAGGGGCGGACAGGAGGTGCTTCGACTGGGAGGAGGGCGAAGAGTGTAAGGGGGCGGAGGGGCGATGGCAGCCAGG [CDK4 promoter fragment mutant MBS1-4],no binding,100,,,,
CCGGTACCGGGTTGTGGCAGCCAGTCACGTGCCCGCCGCGTAGCCACACCTCTGCTCCTCAGAGCAATGTCAAGCGGTCACGTGTGATAGCAACAGATCACGTGGCTGCCATCGCCCCTC / ATGAATTCCGGACGTTCTGGGCACGTGACCGCCACCCATGCGCTGAGGGGCGGACAGGAGGTGCTTCGACTGGGAGGAGGGCGAAGAGTGTAAGGGGGCGGAGGGGCGATGGCAGCC [CDK4 promoter fragment wt MBS1-4],,,binds,binds,active,not active
